Literature values, collected in patent publication US20120142770A1, “PHARMACEUTICAL COMPOSITIONS OF HDAC INHIBITORS AND CHELATABLE METAL COMPOUNDS, AND METAL-HDAC INHIBITOR CHELATE COMPLEXES” (Merck Sharp & Dohme Corp, priority 2006, published 2012).

Tested on: carcinogen-induced (N-methylnitrosourea) mammary tumors
Conditions: rats, administered in diet over 130 days; cited from earlier work

O=C(CCCCCCC(=O)Nc1ccccc1)NO [Suberoylanilide hydroxamic acid (SAHA), N-hydroxy-N′-phenyloctanediamide]
inhibition of tumor development and growth: effective at inhibiting the development and continued growth of carcinogen-induced (N-methylnitrosourea) mammary tumors
